Reference: PubChem BioAssay AID328 (DTP/NCI, 2004)
The list shows only some results of the screen, not a fair sample: it gathers tests that were run many times, whatever their T/C, doses with no T/C, and many T/C values between a quarter and a half above the control. Other doses and runs of a compound stand elsewhere. T/C is the treated group as % of the vehicle group. Some entries give survivors of the animals treated and no T/C: the source holds a T/C of zero for them, seemingly a mark for toxic or unscored doses. Some survivor counts are full or nearly so, which does not show that the dose was tolerated: the source hardly ever lists a survival T/C far under the control, and the zero likely stands for such cases as well. Survivors were counted at the toxicity check, usually on the fifth day, unless a day is given; later deaths do not show. Schedule codes are those of the source, read here as Q, the interval in days (D) or hours (H), X, the number of doses. Some entries were tested several times; their values stand side by side, smallest first. Where survival is the endpoint, the PubChem record calls one and a half times the control and up active, and a quarter to a half above the control has no call in these data; cut-offs in other NCI protocols can differ. Some T/C values are followed by the survivors on the day toxicity was checked, most often the fifth; without a count, all were alive then. Counts like (3×) stand for listed records that agree.

System: BDF1 mice, P388 leukemia ip, median survival T/C
Test: NCI In Vivo Anticancer Drug Screen. Data for tumor model P388 Leukemia (intraperitoneal) in B6D2F1 (BDF1) mice
Details: T/C endpoint: median survival time, vehicle: Klucel (hydroxypropylcellulose) (HPC), higher T/C = longer survival
Outline: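 Mice carrying the transplantable tumour receive compound or vehicle. Survival is followed in each arm, and the treated measure is divided by the vehicle measure.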

[1] = dose: 50.0 mg/kg/injection, schedule: Q01DX009 (ip)

O=c1cnn(C2OC(CO)C(O)C2O)c(=O)[nH]1 (stereo not drawn)
T/C (dose: 25.0 mg/kg/injection, schedule: Q01DX009 (ip)): 126 % of control | T/C (dose: 50.0 mg/kg/injection, schedule: Q01DX001 (ip), evaluated on day 30): 88, 93, 95 (3×), 96 (2×), 97, 98 (3×), 99, 100 (3×), 101, 102, 103, 104 (2×), 105 (4×), 109 (2×), 110, 117, 122 % of control | T/C (dose: 50.0 mg/kg/injection, schedule: Q01DX001 (ip), evaluated on day 35): 87 and 120 % of control | survivor count (dose: 50.0 mg/kg/injection, schedule: Q01DX001 (ip)): 3 of 3 | T/C (dose: 50.0 mg/kg/injection, schedule: Q01DX005 (ip), evaluated on day 30): 90 [5 of 6 alive], 91, 92, 93, 100 (2×), 102, 103 (2×), 105 (3×), 106 (3×), 106 [5 of 6 alive], 108, 109 (2×), 112 (3×), 113, 116, 117, 120 (2×), 121, 122 (2×), 129 (2×), 141 % of control | T/C (dose: 50.0 mg/kg/injection, schedule: Q01DX005 (ip), evaluated on day 35): 125 % of control | survivor count (dose: 50.0 mg/kg/injection, schedule: Q01DX005 (ip)): 3 of 3 | T/C [1]: 91, 93, 96, 100 (2×), 102, 103 (2×), 104 (2×), 106, 107, 108 (2×), 109 (2×), 110, 111, 113 (2×), 115 (3×), 117, 118, 119, 120, 122 (2×), 125, 128 [5 of 6 alive], 133, 136, 188 % of control | survivor count [1]: 6 of 6 | T/C (dose: 50.0 mg/kg/injection, schedule: Q04DX002 (ip), evaluated on day 30): 93, 94, 99 (2×), 101 (2×), 101 [5 of 6 alive], 102 [5 of 6 alive], 103 (3×), 105 (5×), 106, 107 (4×), 108, 109 (3×), 110, 111, 113 (2×), 117, 118 % of control | T/C (dose: 50.0 mg/kg/injection, schedule: Q04DX002 (ip), evaluated on day 35): 106 % of control [5 of 6 alive] | survivor count (dose: 50.0 mg/kg/injection, schedule: Q04DX002 (ip)): 3 of 3 and 6 of 6 | T/C (dose: 50.0 mg/kg/injection, schedule: Q04DX003 (ip), evaluated on day 30): 92, 93 (2×), 99, 101 (2×), 102, 103, 104, 105 (3×), 105 [2 of 3 alive], 106 (2×), 107 (3×), 108 (2×), 109 (2×), 110, 111 (2×), 112 (2×), 115, 116 (2×), 125, 135 % of control | T/C (dose: 50.0 mg/kg/injection, schedule: Q04DX003 (ip), evaluated on day 35): 100 and 102 % of control | survivor count (dose: 50.0 mg/kg/injection, schedule: Q04DX003 (ip)): 2 of 6 and 3 of 3 | T/C (dose: 100.0 mg/kg/injection, schedule: Q01DX001 (ip), evaluated on day 30): 89, 90, 92, 94, 95 (2×), 96, 98 (2×), 100 (4×), 101, 102, 103, 104 (4×), 105, 107, 109 (2×), 110, 111, 117, 121 % of control | T/C (dose: 100.0 mg/kg/injection, schedule: Q01DX001 (ip), evaluated on day 35): 108 and 120 % of control | survivor count (dose: 100.0 mg/kg/injection, schedule: Q01DX001 (ip)): 3 of 3 and 6 of 6 | T/C (dose: 100.0 mg/kg/injection, schedule: Q01DX005 (ip), evaluated on day 30): 92, 93, 95, 96 (2×), 100 (2×), 102, 104 (2×), 105 (4×), 107 (2×), 108, 109, 110, 112, 113 (2×), 115 (2×), 118, 119, 120, 121, 122, 122 [5 of 6 alive], 133, 134 (2×), 145 % of control | T/C (dose: 100.0 mg/kg/injection, schedule: Q01DX005 (ip), evaluated on day 35): 125 % of control | T/C (dose: 100.0 mg/kg/injection, schedule: Q01DX009 (ip)): 92 (2×), 93, 96, 97, 99, 100, 103, 104, 105 (3×), 106, 107 (3×), 107 [2 of 3 alive], 108 (4×), 109, 110, 112, 113 (3×), 114, 116, 117, 118, 119, 124, 127, 142 % of control | T/C (dose: 100.0 mg/kg/injection, schedule: Q04DX002 (ip), evaluated on day 30): 90, 97, 99 (2×), 100 (2×), 103, 105 (2×), 106 (4×), 107 (3×), 108 (4×), 111 (2×), 112 (2×), 113 (3×), 115, 117, 118, 121, 128 % of control | T/C (dose: 100.0 mg/kg/injection, schedule: Q04DX002 (ip), evaluated on day 35): 114 % of control | survivor count (dose: 100.0 mg/kg/injection, schedule: Q04DX002 (ip)): 6 of 6 | T/C (dose: 100.0 mg/kg/injection, schedule: Q04DX003 (ip), evaluated on day 30): 87, 87 [2 of 3 alive], 88, 94, 97, 97 [5 of 6 alive], 98 (3×), 103 (2×), 104 (2×), 105, 106 (2×), 107 (2×), 108 (2×), 109 (4×), 110, 112 (3×), 114, 117, 121, 130 [5 of 6 alive], 140, 147 % of control | T/C (dose: 100.0 mg/kg/injection, schedule: Q04DX003 (ip), evaluated on day 35): 102 and 107 % of control | T/C (dose: 200.0 mg/kg/injection, schedule: Q01DX001 (ip), evaluated on day 30): 91 (2×), 95, 95 [5 of 6 alive], 96, 97, 98, 99, 100 (5×), 101, 102 (2×), 104, 105, 107 (3×), 108, 109 (2×), 113 (2×), 115, 120 % of control (2×) | T/C (dose: 200.0 mg/kg/injection, schedule: Q01DX001 (ip), evaluated on day 35): 95 and 107 % of control
